Source: PubChem BioAssay AID1159506 (NCATS, 2015).

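Genome-wide siRNA knockdown in TC32 Ewing sarcoma cells, comparing luciferase light from an NR0B1-promoter reporter with a CMV-promoter reporter 48 hours after transfection. Each siRNA was applied at 20 nM. A z-score of the log NR0B1-over-CMV signal, less the median of siRNAs with the same seed; more negative means a stronger specific loss of the NR0B1 reporter.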

This is part of the screen; most of the strongest results are not listed here. Sequences are the guide (antisense) strand, without overhang.

| # | siRNA | target gene | seed-corrected z-score |
|---|---|---|---|
| 1 | `UAGGGAAUCCCAGCAAUCU` | RAB36 | -0.3413 |
| 2 | `UAUAGCAGAAGAUGAAUUC` | ADGRF1 | -1.209 |
| 3 | `AAUCAAAUAAGUCCAGUUC` | PRKY | -0.5573 |
| 4 | `UGAGGGACUGUUCAGGUAU` | NOBOX | -0.03051 |
| 5 | `AAUAUGACAUGUGCUUAGC` | IL22 | -0.2572 |
| 6 | `UUUGCAAGCAGGUAUUUGC` | CDC27P5 | -0.9221 |
| 7 | `UACGUUAAGGGUUAUUUUC` | PRH2 | 0.4644 |
| 8 | `UGUUAUCCCAGAUUACUGG` | MGEA5 | 1.048 |
| 9 | `UAGAUAGACAUCCAGUCGC` | KIAA1033 | 0.8722 |
| 10 | `ACCCUUCCCAACUUCAUCU` | LTBR | -0.5077 |
| 11 | `UGUUACAAAACUUAUGGGC` | CXorf56 | 0.2252 |
| 12 | `AUCUCGAUCAUCCAGGUCG` | SULT2B1 | -0.4985 |
| 13 | `UUCUUGAUGAAUACGUUCC` | PABPC4L | 0.09752 |
| 14 | `UAUGUGAUAAGAAUCCUUC` | C9orf85 | 2.071 |
| 15 | `UGGCGUGAAGUCUCAGUGC` | CCDC153 | 0.3685 |
| 16 | `UCAGGAUAUUCAGUGAAUG` | OR9Q1 | 0.2267 |
| 17 | `UUCUUGAUUUAUCACGUGG` | PRPF4B | -0.2157 |
| 18 | `UGAGGUUCACUUGUGCGGC` | CR1L | -1.874 |
| 19 | `UUCAUGUUUCAGGCAAGCG` | ARMC6 | 0.3152 |
| 20 | `AAUGCUACAUGGAAGAAGU` | CD1D | 1.123 |
| 21 | `UCACCUGCUACUGAAGAUG` | FCMR | 0.0702 |
| 22 | `UUCCCUGACAGUGUAAUGU` | LBHD1 | 0.4175 |
| 23 | `AAACUCAUCAUAGUGUUCC` | U2AF1 | -0.6925 |
| 24 | `UUUUCCACCUGUUUACAGC` | RARRES3 | -0.3076 |
| 25 | `UUCGCUUUGACCCAUGCUC` | TRPM6 | -0.5039 |
| 26 | `UAUUCGAAGAUGUCAGACC` | TENM2 | 0.1509 |
| 27 | `UCAUAGAUCUCAGGUAUGC` | RGS1 | -0.7564 |
| 28 | `GGGCUUGCCAAUCUUGUUC` | RPS2P8 | 0.08063 |
| 29 | `UUAGCCUUAAGAAAGUCUG` | ACVR2A | 0.02743 |
| 30 | `UUCAUAAUCUGUAUCUUGG` | ARMCX1 | 0.7639 |
| 31 | `UUUUAGUACUGUAGGAUCC` | CLVS2 | -0.1435 |
| 32 | `UCAGGUAAAAUAUUGAGGG` | P2RY1 | 0.3268 |
| 33 | `UUCGUCAUUAUUCUUGUUG` | BCHE | -0.5911 |
| 34 | `UCAGAAUUCAGCCUGAACU` | THAP4 | 0.7145 |
| 35 | `UGUGAAGUGCGUACGUUGC` | PITX1 | -0.1462 |
| 36 | `UGGUUGUCAGCGUAUGUCC` | PLCE1 | -0.1961 |
| 37 | `UAUAUAUCAAAUGAUGACC` | TFB2M | 0.5199 |
| 38 | `AAGGUGCUGAUCUUCUUGG` | GPR26 | -1.704 |
| 39 | `AACUUUAGCUUUACUAUCC` | CRISPLD1 | -0.1418 |
| 40 | `UAUAUUCCAAACCGGAUUC` | POU3F2 | 0.2314 |

For reference, 5 entries once more:

siRNA,target gene,seed-corrected z-score
AAUGCUACAUGGAAGAAGU,CD1D,1.123
UGUGAAGUGCGUACGUUGC,PITX1,-0.1462
UAUGUGAUAAGAAUCCUUC,C9orf85,2.071
UCAGAAUUCAGCCUGAACU,THAP4,0.7145
AAACUCAUCAUAGUGUUCC,U2AF1,-0.6925